The test has as its target CD44 (human (endogenous in MCF7 or T47D; the line is not named for this experiment)) (UniProt P16070). Briefly: co-IP; RIPA whole-cell extracts pre-cleared with normal IgG and protein A/G agarose beads; anti-CD44 antibody (2-3 ug) with protein A/G agarose at 4 °C overnight; washed three times with PBS; blot with anti-Ezrin or anti-Merlin; cells with or without co-culture with THP-1-derived M2-like macrophages in a non-contact transwell system.

The chains behind the UniProt entries cited, without tags or fusion partners. Where a name states a change or a piece, a line headed by the entry shows the natural chain unless it says otherwise. Residues count along the entry.
UniProt P16070, residues 21-742: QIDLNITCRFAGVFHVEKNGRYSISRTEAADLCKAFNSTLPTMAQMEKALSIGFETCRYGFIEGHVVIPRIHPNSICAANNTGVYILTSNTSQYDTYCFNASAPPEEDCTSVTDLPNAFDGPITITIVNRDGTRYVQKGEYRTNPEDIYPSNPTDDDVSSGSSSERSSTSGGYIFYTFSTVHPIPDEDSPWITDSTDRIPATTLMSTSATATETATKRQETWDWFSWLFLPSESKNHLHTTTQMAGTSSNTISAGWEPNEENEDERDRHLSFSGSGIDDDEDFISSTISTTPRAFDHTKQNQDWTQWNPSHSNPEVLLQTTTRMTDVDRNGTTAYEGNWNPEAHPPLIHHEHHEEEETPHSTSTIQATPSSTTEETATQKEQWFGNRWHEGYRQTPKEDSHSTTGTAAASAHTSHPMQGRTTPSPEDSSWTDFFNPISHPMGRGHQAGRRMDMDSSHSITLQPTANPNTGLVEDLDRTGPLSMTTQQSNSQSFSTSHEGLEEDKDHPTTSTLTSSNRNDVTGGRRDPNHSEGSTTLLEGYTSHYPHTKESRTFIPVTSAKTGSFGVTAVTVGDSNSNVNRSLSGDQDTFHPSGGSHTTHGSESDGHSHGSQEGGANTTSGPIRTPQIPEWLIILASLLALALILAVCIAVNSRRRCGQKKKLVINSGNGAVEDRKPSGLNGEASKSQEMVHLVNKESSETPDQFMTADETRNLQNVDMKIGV
UniProt P35240: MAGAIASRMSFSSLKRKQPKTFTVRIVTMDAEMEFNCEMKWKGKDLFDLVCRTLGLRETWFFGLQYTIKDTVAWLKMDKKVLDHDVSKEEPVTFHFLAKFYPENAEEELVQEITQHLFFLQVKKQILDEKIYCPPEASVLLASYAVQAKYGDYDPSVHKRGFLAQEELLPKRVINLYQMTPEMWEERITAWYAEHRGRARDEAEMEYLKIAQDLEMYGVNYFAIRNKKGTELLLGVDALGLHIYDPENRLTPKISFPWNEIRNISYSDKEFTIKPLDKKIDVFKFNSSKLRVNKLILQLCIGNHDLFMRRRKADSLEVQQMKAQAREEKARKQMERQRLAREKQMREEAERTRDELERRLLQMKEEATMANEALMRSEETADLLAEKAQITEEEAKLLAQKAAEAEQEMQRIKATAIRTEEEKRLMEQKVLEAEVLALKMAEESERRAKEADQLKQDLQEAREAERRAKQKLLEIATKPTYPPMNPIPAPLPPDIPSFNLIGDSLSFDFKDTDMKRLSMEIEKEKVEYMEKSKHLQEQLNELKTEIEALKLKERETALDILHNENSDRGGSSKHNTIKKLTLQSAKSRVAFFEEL

No constants are given. Whether binding was seen depends on the method and setting. Binding seen in cells or lysates may run through a third protein. Some entries that bind do so weakly or less than the wild type.

Merlin (from UniProt P35240 1-595): the binding entry was “binds”.
